About 170 (0.05%) of roughly 340,000 compounds were called active. The inconclusive results got no clear call from the source; some entries with a clear call stand among them for comparison. The call rests on the fitted dose curve; in most records, active means well fitted inhibition curve with a large enough effect in the signal ratio, with a control signal flat (not every such curve was filed as active); inconclusive means small, poorly fitted or top-dose-only effect, or effect the other way, or a change in a side signal; inactive means flat fitted curve, though single readings scatter; the % refers to the signal ratio. A potency beside an inconclusive call is a rough fit, not a confirmed value.
Experiment: qHTS Assay to Find Inhibitors of Chronic Active B-Cell Receptor Signaling;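 on activity change, negative = inhibition: plate controls were basal doxycycline-induced cells for no effect and cells given 10 µM MG132 for full effect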
Settings: ABC-DLBCL IkBa-CBG/CBR reporter, luminescence ratio (green luciferase fused to IkBa over red control in TMD8 lymphoma cells), 4 h; activity change, negative = inhibition: at 46.1 µM (top of the series)
In short: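 Doxycycline induced both beetle luciferases in TMD8 lymphoma cells; IKK-driven degradation limits the IkappaBalpha-fused green signal, while red luminescence normalises for cell number and nonspecific effects. Compounds tested up to 46 uM, 4 hrs.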
Potency means the concentration at half of the fitted maximal effect.

| SMILES | activity change, negative = inhibition | Potency |
| --- | --- | --- |
| Cc1cc(C)cc(NC(=O)CCC(=O)Nc2nnc(C(F)(F)F)s2)c1 | inconclusive: 20.3% | – |
| CCN(CC)C(=O)CSc1nc2c(sc(=S)n2Cc2ccco2)c(=O)n1-c1ccccc1 | inconclusive: 2.13% | – |
| CCOC(=O)c1oc2ccc(OC)cc2c1NC(=O)CN1CCN(C)CC1 | inactive: -7.96% | – |
| Cc1cc(C(=O)N/N=C/C(Cl)=C/c2ccccc2)c(C)o1 | – | inconclusive: 15.8 µM [falling, partial curve] |
| CCOc1cccc2sc(N3CCN(C(=O)c4ccco4)CC3)nc12 | inconclusive: 13.8% | – |
| O=C(CS(=O)c1cccc(C(F)(F)F)c1)Nc1ccccc1Cl (configuration not stated) | inactive: -10.2% | – |
| CC(=O)OCCN(C)c1cc(SC(C)C)c2nonc2c1[N+](=O)[O-] | – | inconclusive: 22.4 µM [falling, single point] |
| CCOC(=O)c1c(C)[nH]c(C)c1C(=O)COC(=O)/C=C/c1cccc(Cl)c1 | inactive: -0.668% | – |
| CCC(=O)/C=C1\Sc2ccc(OC)cc2N1CC | inactive: -2.63% | – |
| Cc1ccc2nc(-c3ccc4c(c3)OCCO4)cn2c1 | – | inconclusive: 35.5 µM [falling, single point] |
| O=C(NCc1cccnc1)C1c2ccccc2C(=O)N1C1CCCCCCC1 (configuration not stated) | inactive: -6.26% | – |
| COc1ccc(-c2coc3cc(O)cc(O)c3c2=O)cc1 | inconclusive: -7.94% | – |
| CC(=O)N(C)c1ccc(N=Cc2c(O)ccc3ccccc23)cc1 | – | inconclusive: 11.2 µM [falling, partial curve, poor fit] |
| COc1cc(OC)c2ccc(=O)oc2c1C(CC(=O)N1CCCC(C)C1)c1ccc2c(c1)OCO2 (configuration not stated) | inactive: -7.5% | – |
| COCCn1c(SCC(=O)Nc2ccc(F)cc2)nc2ccccc2c1=O | inactive: 3.4% | – |
| CCOc1ccc(-c2cc(C(=O)NCCc3ccc(C)cc3)c3ccccc3n2)cc1 | inactive: 14.9% | – |
| C=CCN(c1ccccc1OC)S(=O)(=O)c1cccc(C(=O)NC2=NCCS2)c1 | inconclusive: 10.1% | – |
| O=C(COc1ccccc1-c1ccccc1)NN=C1CCCC1 | – | inconclusive: 11.2 µM [falling, partial curve, poor fit] |
| O=C(CSc1nnc(SCc2ccccc2)s1)N/N=C/c1c[nH]c2ccccc12 | – | inconclusive: 11.2 µM [falling, partial curve, poor fit] |
| COc1ccc(C(=O)c2oc3ccc(Br)cc3c2NC(C)=O)cc1 | inconclusive: 11.3% | – |
| Cc1cccc(OCCn2c(CCCO)nc3ccccc32)c1 | – | inconclusive: 16.4 µM [falling, single point] |
| CCC(Sc1nc2ccsc2c(=O)n1-c1ccc(Cl)c(C)c1)C(=O)NCc1ccco1 (configuration not stated) | inconclusive: -5.68% | – |
| Cc1ccc(NC(=O)CCC(=O)NNC(=S)Nc2ccc(F)cc2F)cc1C | – | inconclusive: 22.4 µM [falling, partial curve, poor fit] |
| COc1cccc(CC2(CO)CCCN(Cc3ccc4c(c3)OCCO4)C2)c1 (configuration not stated) | – | inconclusive: 28.2 µM [falling, single point] |
| Nc1ccc2nc(-c3ccc(N)c(Cl)c3)[nH]c2c1 | – | inconclusive: 20.6 µM [falling, partial curve] |
| C=CCn1c(SCC(N)=O)nnc1-c1cc2c(s1)CCC(CC)C2 (configuration not stated) | – | inconclusive: 0.0517 µM [rising, full curve] |

A draw from above in order of number of heavy atoms, smallest number first:

| SMILES | activity change, negative = inhibition | Potency |
| --- | --- | --- |
| CCC(=O)/C=C1\Sc2ccc(OC)cc2N1CC | inactive: -2.63% | – |
| Cc1ccc2nc(-c3ccc4c(c3)OCCO4)cn2c1 | – | inconclusive: 35.5 µM [falling, single point] |
| Cc1cc(C(=O)N/N=C/C(Cl)=C/c2ccccc2)c(C)o1 | – | inconclusive: 15.8 µM [falling, partial curve] |
| Cc1cccc(OCCn2c(CCCO)nc3ccccc32)c1 | – | inconclusive: 16.4 µM [falling, single point] |
| CC(=O)OCCN(C)c1cc(SC(C)C)c2nonc2c1[N+](=O)[O-] | – | inconclusive: 22.4 µM [falling, single point] |
| CCOc1cccc2sc(N3CCN(C(=O)c4ccco4)CC3)nc12 | inconclusive: 13.8% | – |
| COCCn1c(SCC(=O)Nc2ccc(F)cc2)nc2ccccc2c1=O | inactive: 3.4% | – |
| Cc1ccc(NC(=O)CCC(=O)NNC(=S)Nc2ccc(F)cc2F)cc1C | – | inconclusive: 22.4 µM [falling, partial curve, poor fit] |
| C=CCN(c1ccccc1OC)S(=O)(=O)c1cccc(C(=O)NC2=NCCS2)c1 | inconclusive: 10.1% | – |
| CCC(Sc1nc2ccsc2c(=O)n1-c1ccc(Cl)c(C)c1)C(=O)NCc1ccco1 (configuration not stated) | inconclusive: -5.68% | – |
| CCN(CC)C(=O)CSc1nc2c(sc(=S)n2Cc2ccco2)c(=O)n1-c1ccccc1 | inconclusive: 2.13% | – |
| COc1cc(OC)c2ccc(=O)oc2c1C(CC(=O)N1CCCC(C)C1)c1ccc2c(c1)OCO2 (configuration not stated) | inactive: -7.5% | – |

Further entries:

| SMILES | activity change, negative = inhibition | Potency |
| --- | --- | --- |
| COc1cc(OC)c2c(c1)S(=O)(=O)C(c1ccccc1)=C2N | inconclusive: -4.4% | – |
| O=C(CN1C(=O)C2CC=CCC2C1=O)Nc1nc2ccc(F)cc2s1 (configuration not stated) | inconclusive: 12% | – |
| COC(=O)Cn1c(=NC(=O)c2ccc(Cl)s2)sc2cc(F)ccc21 | inconclusive: 7.04% | – |
| Cc1ccc(/C=N/Nc2ccccn2)s1 | inconclusive: -1.52% | – |
| CCn1c(CSc2nc3ccccc3[nH]2)n[nH]c1=S | inconclusive: 11.6% | – |
| Cc1ccc(C(=O)C2C(=O)c3ccccc3C2=O)cc1 | – | inconclusive: 35.5 µM [falling, single point] |
| O=c1[nH]nc(CNc2ccc(C(F)(F)F)cc2)c2ccccc12 | inconclusive: -11.7% | – |
| O=C(O)C1C2CCCCC2=C2CCCCC2C1C(=O)c1ccccc1 (configuration not stated) | – | inconclusive: 0.708 µM [falling, partial curve, poor fit] |
| O=C1NCC(COc2cccc3ccccc23)O1 (configuration not stated) | – | inconclusive: 17.8 µM [falling, partial curve] |
| COc1cc(C(=O)N/N=C(\C)c2ccc3c(c2)OCO3)cc(OC)c1OC | – | inconclusive: 10 µM [falling, partial curve] |
| CCCOc1cccc(C(=O)Nc2ccccc2C(=O)N2CCN(C)CC2)c1 | inconclusive: 2.47% | – |
| Cc1ccc(F)cc1NC(=O)CCOc1ccccc1 | – | inconclusive: 11.2 µM [falling, partial curve] |
| CC(=O)NS(=O)(=O)c1ccc(NC(=O)c2cc(-c3cccs3)nc3ccccc23)cc1 | inactive: 18.2% | – |
| COc1cc(CCCN2C(N)=NC[C@@H]2c2ccccc2)cc(OC)c1OC | inconclusive: -4.62% | – |
| CCn1c(SCC(=O)NNC(=O)Cc2ccccc2)nnc1-c1ccccc1 | inconclusive: -5.68% | – |
| Cc1nnc(NC(=O)c2ccc(S(=O)(=O)N3CCCCCC3)cc2)o1 | inactive: -10.6% | – |
| CCOC(=O)CSC1=NC(=O)/C(=C/c2ccc(OC)cc2)S1 | – | inconclusive: 29.1 µM [falling, partial curve, poor fit] |
| CCOc1ccc2nc(NC3=NC(c4ccc(OC)cc4)CC(=O)N3)nc(C)c2c1 (configuration not stated) | – | inconclusive: 35.5 µM [rising, single point] |
| COc1ccc(OC)c(C(=O)N/N=C/c2ccccn2)c1 | inconclusive: -6.41% | – |
| C#CCOCCOCCOCCNc1nc(N2CCOCC2)nc(N2CCN(C(=O)[C@H]([C@@H](C)O)n3cc(CCCCN)nn3)CC2)n1 | inconclusive: 6.09% | – |
| CCOC(=O)c1ccc(NC(=O)Nc2ccc(Cl)cn2)cc1 | inactive: -11.9% | – |
| CC1CCCC(NC(=O)CCC(=O)N2CCOc3ccccc32)C1C (configuration not stated) | inactive: 6.67% | – |
| Cc1c(C#N)c2ccccc2n1CC(=O)NCc1cccnc1 | inconclusive: -0.572% | – |
| O=C1Nc2ccccc2N(O)N1c1cc(-c2cccc(Cl)c2)no1 | – | inconclusive: 1.46 µM [rising, full curve, poor fit] |
| O=C(Nc1ccc(OC(F)(F)F)cc1)c1[nH]ncc1[N+](=O)[O-] | – | inconclusive: 22.4 µM [falling, single point] |
| COc1ccc(CN(C)CC(=O)c2c(N)n(Cc3ccccc3)c(=O)n(C)c2=O)c(OC)c1 | inconclusive: 8.19% | – |

Single records, from the list above:
`Cc1ccc(F)cc1NC(=O)CCOc1ccccc1` as listed: Potency: inconclusive: 11.2 µM [falling, partial curve]
`CCC(Sc1nc2ccsc2c(=O)n1-c1ccc(Cl)c(C)c1)C(=O)NCc1ccco1` (configuration not stated) as listed: activity change, negative = inhibition: inconclusive: -5.68%

Continuation.

| SMILES | activity change, negative = inhibition | Potency |
| --- | --- | --- |
| CN1c2ccccc2C(O)=C(C(=O)Nc2ccccc2)S1(=O)=O | – | inconclusive: 35.5 µM [rising, single point] |
| CCOCCCNC(=O)CSCc1nc(-c2ccc(SC)cc2)oc1C | – | inconclusive: 8.91 µM [rising, partial curve] |
| Cc1cc(C)c[n+](CC(=O)c2ccc(-c3ccccc3)cc2)c1 | inconclusive: -0.982% | – |
| O=C(O)c1c2c(nc3ccccc13)/C(=C/c1cccc([N+](=O)[O-])c1)CCC2 | inconclusive: -0.732% | – |
| COc1ccc(/C=C/C(=O)NCc2ccccn2)cc1OC | inactive: 10.9% | – |
| CS(=O)(=O)N1CCN(c2ccccc2NC(=O)c2ccc(Cl)cc2)CC1 | inconclusive: 11.9% | – |
| O=c1[nH][nH]c(-c2ccccc2O)c1C(C[N+](=O)[O-])c1ccc(Cl)cc1Cl (configuration not stated) | – | inconclusive: 4.61 µM [falling, partial curve, poor fit] |
| O=[N+]([O-])c1cccc(-c2noc3c2-c2nc(Cc4cccc5ccccc45)sc2CC3)c1 | inconclusive: 6.3% | – |
| CCNC(=S)N/N=C(\C)c1cccc(C(F)(F)F)c1 | – | inconclusive: 35.5 µM [cytotoxic, single point] |
| COc1ccc(Cn2c(=O)[nH]c3cc(C(=O)NCCCN4CCCCCC4)ccc3c2=O)cc1 | inconclusive: 4.39% | – |
| O=C(CNCCc1ccc(Cl)cc1Cl)NCc1ccco1 | inconclusive: 11.8% | – |
| Cc1ccc(-c2nc3sc(CCNC(=O)c4ccc(F)c(F)c4)c(C)n3n2)cc1 | inactive: -19.7% | – |
| CCOc1ccc(C(=O)CN2CCN(S(=O)(=O)c3ccc(Br)cc3)CC2)cc1 | inconclusive: -12.2% | – |
| Cc1ccc(C(=O)NCc2ccc3c(c2)CCO3)cc1C | inconclusive: 0.253% | – |
| CCN(CC)CCC(=O)Nc1cccc2c1C(=O)c1ccccc1C2=O | – | inconclusive: 15.8 µM [rising, partial curve] |
| O=c1c2ccccc2nc(SCc2ccc([N+](=O)[O-])cc2)n1CCCO | inactive: -7.1% | – |
| CC(C)c1ccc(/C=C(\NC(=O)c2ccccc2)C(=O)NCCCn2ccnc2)cc1 | inactive: -9.16% | – |
| O=C(CCCCCn1c(=O)[nH]c2ccccc2c1=O)N1CCN(c2cccc(C(F)(F)F)c2)CC1 | – | inconclusive: 35.5 µM [falling, single point] |
| Cc1cc(C)n2nc(SCc3cccc(S(=O)(=O)N(C)C)c3)nc2n1 | inactive: 1.37% | – |
| O=C(NCc1cn(-c2ccccc2)nc1-c1ccc(F)cc1)c1cccc([N+](=O)[O-])c1 | inactive: -2.15% | – |
| S=C(Nc1ccc(Br)cc1Cl)Nn1cnnc1 | inconclusive: 8.27% | – |
| COc1ccc(-c2cc3nc(C)c(CCC(=O)NCc4ccc(F)cc4)c(C)n3n2)c(OC)c1 | – | inconclusive: 5.62 µM [falling, full curve] |
| Cc1ccccc1OCC(=O)NC(=S)Nc1ccc(N2CCCC2)cc1 | inactive: -8.63% | – |
| CCOC(=O)c1ccc(N2CCN(c3ccccc3F)CC2)c(NC(=O)Nc2cccc(OC)c2)c1 | inactive: -0.0945% | – |
| O=C(CSc1nc2ccccc2c(=O)n1-c1ccc(OC(F)F)cc1)NCc1cccs1 | – | inconclusive: 18.4 µM [falling, partial curve] |
